Laboratory results taken from paper PMC5656322, “BAK1 is involved in AtRALF1-induced inhibition of root cell expansion” (PLoS Genetics, 2017).
No constants are given. Whether binding was seen depends on the method and setting. A result given as binding can be weak or reduced; the word gives no strength. Sequences can lack the tags named with a protein.

Each substance was assayed against T1, AtRALF1 mature peptide fused to the GAL4 DNA-binding domain (AtRALF1-pGBKT7) (Arabidopsis thaliana) (UniProt Q9SRY3) (assay: two-hybrid; RALF peptide fused to the GAL4 DNA-binding domain (pGBKT7) as bait, extracellular domains or truncations fused to the GAL4 activation domain (pGADT7); yeast AH109; growth on synthetic complete medium lacking leucine, tryptophan and histidine).
T1 sequence: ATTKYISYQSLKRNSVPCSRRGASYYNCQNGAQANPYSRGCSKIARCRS

Row | Substance | binding
1 | BAK1-ECD truncated protein 1: LRR1 + LRR2 + LRR3 + LRR4 + LRR5 + Prorich (Arabidopsis thaliana) (domain or fragment) | no binding
2 | BAK1-ECD truncated protein 2: LRR2 + LRR3 + LRR4 + LRR5 + Prorich (Arabidopsis thaliana) (domain or fragment) | no binding
3 | BAK1-ECD truncated protein 3: LRR3 + LRR4 + LRR5 + Prorich (Arabidopsis thaliana) (domain or fragment) | no binding
4 | BAK1-ECD truncated protein 4: LRR4 + LRR5 + Prorich (Arabidopsis thaliana) (domain or fragment) | no binding
5 | BAK1-ECD truncated protein 5: LRR5 + Prorich (Arabidopsis thaliana) (domain or fragment) | no binding
6 | BAK1-ECD truncated protein 6: Pro-rich (Arabidopsis thaliana) (domain or fragment) | no binding
7 | BAK1-ECD truncated protein 7: Leu zippers + LRR1 + LRR2 + LRR3 + LRR4 + LRR5 (Arabidopsis thaliana) (domain or fragment) | no binding
8 | BAK1-ECD truncated protein 8: Leu zippers + LRR1 + LRR2 + LRR3 + LRR4 (Arabidopsis thaliana) (domain or fragment) | no binding
9 | BAK1-ECD truncated protein 9: Leu zippers + LRR1 + LRR2 + LRR3 (Arabidopsis thaliana) (domain or fragment) | binds
10 | BAK1-ECD truncated protein 10: Leu zippers + LRR1 + LRR2 (Arabidopsis thaliana) (domain or fragment) | binds
11 | BAK1-ECD truncated protein 11: Leu zippers + LRR1 (Arabidopsis thaliana) (domain or fragment) | no binding
12 | BAK1-ECD truncated protein 12: Leu zippers (Arabidopsis thaliana) (domain or fragment) | no binding
13 | Extracellular domain of BRI1 fused to the GAL4 activation domain (BRI1-ECD, pGADT7) (Arabidopsis thaliana) (domain or fragment) | no binding
